This is an account of results in PubChem BioAssay AID624256 (NMMLSC, 2012).

Structures are written as SMILES. This is one part of the list.

This assay is described as follows: induction of myeloid progenitor differentiation, primary screen, cell-based, flow cytometry, MLPCN library (AID 624256).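 Also: cells exposed to compound for four days before flow analysis.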 The note with it: ER-HoxA9 myeloid progenitors, lysozyme-GFP differentiation, measured here: differentiation confirmed by MAC1 staining, at 10 µM, stronger effect = higher value.
With `CC1=C2N=C(C=C3N=C(C(C)=C4[N-][C@@](C)([C@@H]5N=C1[C@](C)(CCC(=O)NC[C@@H](C)OP(=O)([O-])O[C@H]1[C@@H](O)[C@@H](n6cnc7cc(C)c(C)cc76)O[C@@H]1CO)[C@H]5CC(N)=O)[C@@](C)(CC(N)=O)[C@@H]4CCC(N)=O)[C@@](C)(CC(N)=O)[C@@H]3CCC(N)=O)C(C)(C)[C@@H]2CCC(N)=O.[C-]#N.[Co+3]`, the GFP+ MAC1+ double positive stood at 2%.

`O=[N+]([O-])c1cc([N+](=O)[O-])c(Nc2nnnn2CCO)c([N+](=O)[O-])c1`: the GFP+ MAC1+ double positive was 2.1%.

The molecule `CCCC1OP(=O)(Nc2ccccc2)OCC1CC` (stereo not given) registered a GFP+ MAC1+ double positive of 0.5%.

Molecule `O=C(/C=C/c1ccccc1)OC1CN2CCC1CC2` (stereo not given) had a GFP+ MAC1+ double positive of 0.8%.

For the molecule `COc1ccccc1OP(C)(=O)Nc1c(C)cccc1C` (stereo not given), the GFP+ MAC1+ double positive came out at 0.9%.

In turn, `CN1CCCCC1COC(=O)C1(O)c2ccccc2CCc2ccccc21` (stereo not given) gave a GFP+ MAC1+ double positive of 0.4%.

On to `O=P1(Nc2ncccn2)COc2ccccc2OC1`, for which the GFP+ MAC1+ double positive came to 0.5%.

Take `CCCOc1ccc(NP(C)(=O)Oc2ccc(Cl)cc2)cc1` (stereo not given): the GFP+ MAC1+ double positive was determined as 0.3%.

With `Nc1cccc([As](=O)(O)c2ccccc2)c1`, the GFP+ MAC1+ double positive stood at 0.3%.

For the molecule `CP(=O)(Nc1ccc(SC(F)(F)F)cc1)Oc1ccccc1` (stereo not given), the GFP+ MAC1+ double positive came out at 0.9%.

`COc1ccc(-c2ccccn2)cc1.O=[N+]([O-])c1cc([N+](=O)[O-])c(O)c([N+](=O)[O-])c1` gave a GFP+ MAC1+ double positive of 0.9%.

`Cc1ccc(OCC(=O)OC2CN3CCC2CC3)cc1` (stereo not given) gave a GFP+ MAC1+ double positive of 0.7%.

`O=[As](O)(c1cccs1)c1cccs1` gave a GFP+ MAC1+ double positive of 0.8%.

In the case of `O=P1(Nc2ccc(Br)cn2)COc2ccccc2OC1`, the GFP+ MAC1+ double positive stood at 0.3%.

In the case of `NS(=O)(=O)c1cccc(NC(=O)COC(=O)C(O)(c2ccccc2)c2ccccc2)c1`, the GFP+ MAC1+ double positive came out at 1.1%.

`O=P(Nc1nccs1)(Oc1ccccc1)Oc1ccccc1` returned a GFP+ MAC1+ double positive of 0.4%.

Regarding `O=P(Nc1nccs1)(c1ccccc1)c1nc2ccccc2s1` (stereo not given), the GFP+ MAC1+ double positive was determined as 1%.

`CCOP1(=S)c2c(C)nn(CCC#N)c2N=C(c2ccccc2F)N1C` (stereo not given): the GFP+ MAC1+ double positive was 7.2%.

Take `O=C(O)c1cccc(Nc2c([N+](=O)[O-])cc([N+](=O)[O-])cc2[N+](=O)[O-])c1`: the GFP+ MAC1+ double positive was determined as 0.7%.

As for `CS(=O)(=O)c1cc([N+](=O)[O-])c2no[n+]([O-])c2c1`, the GFP+ MAC1+ double positive was determined as 0.2%.

`Nc1ccccc1[As](=O)(O)c1ccccc1`: the GFP+ MAC1+ double positive is 0.6%.

The molecule `O=C(O)COc1ccc([As](=O)(O)O)cc1[N+](=O)[O-]` gave a GFP+ MAC1+ double positive of 0.9%.

For the molecule `NC(=O)Nc1ccc([As](=O)(O)O)cc1`, the GFP+ MAC1+ double positive worked out at 3%.

`CN(C(=O)Cc1ccccc1)[C@@H]1CC[C@]2(CCCO2)C[C@H]1N1CCCC1` had a GFP+ MAC1+ double positive of 2.5%.

The molecule `CCOP1(=S)c2c(C)nn(CCC#N)c2N=C(c2ccc(F)cc2)N1C` (stereo not given) yielded a GFP+ MAC1+ double positive of 1.5%.

On to `N#CCCN(C(=O)COC(=O)C(O)(c1ccccc1)c1ccccc1)c1ccc(F)cc1`, for which the GFP+ MAC1+ double positive amounted to 1.2%.

As to `CC1=NCCc2c1[nH]c1ccccc21.O=[N+]([O-])c1cc([N+](=O)[O-])c(O)c([N+](=O)[O-])c1`, the GFP+ MAC1+ double positive was 0.6%.

For `CN(C(=O)Cc1ccc(Cl)c(Cl)c1)[C@H]1CC[C@@]2(CCCO2)C[C@@H]1N1CCCC1`, the GFP+ MAC1+ double positive is 4.3%.

On to `O=[N+]([O-])c1ccc2c(c1)nnn2O`, for which the GFP+ MAC1+ double positive turned out to be 6.4%.

On to `O=C(OC1CN2CCC1CC2)c1ccc(Cl)cc1` (stereo not given), for which the GFP+ MAC1+ double positive was 0.5%.

In the case of `CS(=O)(=O)c1ccc(Cl)c(NC(=O)COC(=O)C(O)(c2ccccc2)c2ccccc2)c1`, the GFP+ MAC1+ double positive turned out to be 1.3%.

As to `O=[As](O)(O)c1cccnc1`, the GFP+ MAC1+ double positive was found to be 0.3%.

Molecule `COc1cc(C(=O)NCC2(N3CCOCC3)CCCCC2)cc(Cl)c1OC(C)C` displayed a GFP+ MAC1+ double positive of 0.4%.

Molecule `Cc1cc(C)cc(OP(C)(=O)Nc2ccc(C)cc2C)c1` (stereo not given) gave a GFP+ MAC1+ double positive of 7.4%.

The molecule `Cc1cccc(OCC(=O)OC2CN3CCC2CC3)c1` (stereo not given) came in with a GFP+ MAC1+ double positive of 0.5%.

As to `O=[As](O)(c1cccc(O)c1)c1cccc(O)c1`, the GFP+ MAC1+ double positive was 0.3%.

Consider `CCOC(=O)c1ccc(NP(C)(=O)Oc2cc(C)cc(C)c2)cc1` (stereo not given), for which the GFP+ MAC1+ double positive was determined as 0.6%.

As for `Cc1ccc(NCCc2c([N+](=O)[O-])cc([N+](=O)[O-])cc2[N+](=O)[O-])cc1`, the GFP+ MAC1+ double positive turned out to be 0.7%.

The molecule `Nc1cccc2c([As](=O)(O)O)cccc12` showed a GFP+ MAC1+ double positive of 1.6%.

On to `Cc1cc(C)cc(OP(C)(=O)Nc2ccccn2)c1` (stereo not given), for which the GFP+ MAC1+ double positive amounted to 1%.

`CP(=O)(Nc1cccc(Br)c1)Oc1ccccc1` (stereo not given): the GFP+ MAC1+ double positive is 0.1%.

With `Cc1ccc(C)c(NP(C)(=O)Oc2ccccc2)c1` (stereo not given), the GFP+ MAC1+ double positive is 2.5%.

Molecule `CCCOP(=S)(Nc1nc(N)cc(=O)[nH]1)OCCC` gave a GFP+ MAC1+ double positive of 0.5%.

In turn, `CCOP(=O)(Nc1cccc2ccccc12)OCC` showed a GFP+ MAC1+ double positive of 0.6%.

`Cc1c2c(nc3ccccc13)SC(C(Cl)Cl)C2` (stereo not given) had a GFP+ MAC1+ double positive of 0.3%.

`Cc1cc(=O)[nH]c(N[N+](=O)[O-])n1` showed a GFP+ MAC1+ double positive of 0.7%.

Molecule `CCN(CC)CCCOC(=O)C(O)(c1ccccc1)c1ccccc1` showed a GFP+ MAC1+ double positive of 1%.

`O=C(OC1CN2CCC1CC2)C12CC3CC(CC(C3)C1)C2` (stereo not given) displayed a GFP+ MAC1+ double positive of 0.4%.

Turning to `O=P1(N(CCCl)CCCl)OCCCN1CCCl` (stereo not given), the GFP+ MAC1+ double positive is 0.9%.

For the molecule `O=P1(N(CCCl)CCCl)Nc2ccccc2N1`, the GFP+ MAC1+ double positive worked out at 1.5%.

With `COc1cc(I)ccc1[As](=O)(O)O`, the GFP+ MAC1+ double positive came to 0.4%.

`COc1ccc2nc(NP(=O)(c3ccccc3)c3ccccc3)sc2c1` yielded a GFP+ MAC1+ double positive of 0.4%.

As to `O=[N+]([O-])c1cc(Oc2ccc([N+](=O)[O-])cc2C(F)(F)F)cc([N+](=O)[O-])c1`, the GFP+ MAC1+ double positive is 1.6%.

In the case of `COc1ccccc1-c1ccccn1.O=[N+]([O-])c1cc([N+](=O)[O-])c(O)c([N+](=O)[O-])c1`, the GFP+ MAC1+ double positive worked out at 1.5%.

Turning to `COc1ccc(N/C(=N/P(=O)(N2CCOCC2)N2CCOCC2)N2CCOCC2)cc1`, the GFP+ MAC1+ double positive came out at 0.4%.
